The values below come from patent US8569380B2, “Oligomer-tricyclic conjugates” (Nektar Therapeutics, priority 2007, dated 2013).

This series has as its system sodium channels (neuronal INa) in isolated rat dorsal root ganglion cells. Put plainly: Sodium channel assay, whole-cell patch clamp, neuronal INa. In kind it is cell-based. The following applies: relative to carbamazepine; for Neuronal INa Fold Change Relative to Parent, 0.1 Hz: pacing 0.1 Hz; for Neuronal INa Fold Change Relative to Parent, 3 Hz: pacing 3 Hz. For orientation: The patch-clamp technique gives a direct electrical read-out from membranes.

Some results come without the dose or concentration used.

Turning to `NC(=O)N1c2ccccc2C=Cc2ccccc21` [Carbamazepine, reference compound], the “Neuronal INa Fold Change Relative to Parent, 0.1 Hz” value is reported as 1.0 and the “Neuronal INa Fold Change Relative to Parent, 3 Hz” value was determined as 1.0.
Take `COCCOCCOCCOCCOCCOCCOCCNC(=O)N1c2ccccc2C=Cc2ccccc21` [mPEG7-N-Carbamazepine]: the “Neuronal INa Fold Change Relative to Parent, 0.1 Hz” value is recorded as 1.4 and the “Neuronal INa Fold Change Relative to Parent, 3 Hz” value is listed as 1.4.
For `COCCOCCOCCNC(=O)N1c2ccccc2C=Cc2ccccc21` [mPEG3-N-Carbamazepine], the “Neuronal INa Fold Change Relative to Parent, 0.1 Hz” value worked out at 1.4 and the “Neuronal INa Fold Change Relative to Parent, 3 Hz” value is 5.1.
